# Measured values taken from PubChem BioAssay AID493014 (National Center for Advancing Translational Sciences (NCATS), 2011).
# Among all 340,000 compounds or so, about 170 (0.05%) were called active. Inconclusive means that the source gave no clear call. Such entries were picked first, then a sample of the others. Calls follow the shape of the dose curve; as a rule, active = well fitted inhibition curve with a large enough effect in the signal ratio, with a control signal flat (not every such curve was filed as active); inconclusive = small, poorly fitted or top-dose-only effect, or effect the other way, or a change in a side signal; inactive = flat fitted curve, though single readings scatter; the % refers to the signal ratio. Potencies of inconclusive entries are doubtful fits and often do not repeat.
# Assay: qHTS Assay to Find Inhibitors of Chronic Active B-Cell Receptor Signaling;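 as to activity change, negative = inhibition: plate controls were basal doxycycline-induced cells for no effect and cells given 10 µM MG132 for full effect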
# Settings: ABC-DLBCL IkBa-CBG/CBR reporter, luminescence ratio (green luciferase fused to IkBa over red control in TMD8 lymphoma cells), 4 h; activity change, negative = inhibition: at 46.1 µM (top of the series)
# Method in brief: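 Compounds up to 46 uM were incubated four hours with TMD8 cells whose green CBG68 luciferase is fused to IkappaBalpha; red CBR luminescence normalised the signal, and concentration-effect curves were fitted to fusion, red and ratio data.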
# Potency is read from the fitted curve at half-maximal effect.
Structure (SMILES),"activity change, negative = inhibition",Potency
Cc1ccc2cc(CN(CC3CCCO3)C(=O)c3cccs3)c(=O)[nH]c2c1 (configuration not stated),inconclusive: 7.65%,–
COc1cc(/C=N/Nc2ccc(Cl)c(C(=O)O)c2)ccc1OCC(=O)N1C(C)CCCC1C (configuration not stated),inconclusive: -23.1%,–
CCOc1ccc(C(C)=O)cc1COC(=O)CNC(=O)c1cccs1,inconclusive: 2.04%,–
Cc1csc(CN(C)C(=O)C2CCC(=O)N(CCCc3ccccc3)C2)n1 (configuration not stated),inactive,–
COC(=O)/C(=C\Nc1ccc(Oc2ccc(F)cc2F)nc1)NC(=O)c1ccccc1,inconclusive: 4.57%,–
CCn1c(=O)cc(OCC(=O)Nc2ccc3c(c2)OCCO3)c2ccccc21,–,"inconclusive: 18.4 µM [falling, single point]"
C#Cc1ccc([C@H]2C=C(C(=O)N3CCN(Cc4ccc5c(c4)OCO5)CC3)O[C@@H](OCC)[C@@H]2CCCO)cc1,inconclusive: -23.9%,–
CC(=O)Nc1ccc(CN2CCCCCCC2)cc1,inconclusive: -3.23%,–
O=C(COC(=O)c1cc(S(=O)(=O)NCc2ccccc2)ccc1O)NCc1ccccc1,inactive,–
COc1cc([N+](=O)[O-])ccc1NC(=S)NNC(=O)c1ccc2c(c1)OCO2,inconclusive: -25.2%,–
CCCCn1c(=N)n(CC(=O)C(C)(C)C)c2ccccc21,inactive,–
Cc1ccc(S(=O)(=O)Oc2ccc(C(c3c(C)[nH][nH]c3=O)c3c(C)[nH][nH]c3=O)cc2)cc1,inconclusive: -32.6%,–
O=C(C1CCCN(S(=O)(=O)c2cccs2)C1)N1CCN(C2CCCCC2)CC1 (configuration not stated),inconclusive: 6.7%,–
Cn1c(=O)c2c(nc(NC(Cc3ccccc3)C(=O)O)n2Cc2ccccc2)n(C)c1=O (configuration not stated),inconclusive: 4.2%,–
C=CCSc1nnc2c(n1)OC=Nc1ccccc1-2,–,"inconclusive: 16.4 µM [falling, single point]"
C=CCn1c(SCc2ccc(C#N)cc2)nnc1-c1ccc(C)cc1,inactive,–
COc1ccc(C(CNC(=O)C(C)Oc2ccc(Br)cc2)N2CCOCC2)cc1 (configuration not stated),inactive,–
CCCCN(C)C(=O)c1nc2ccccn2c1CNC1CCC1,inconclusive: 7.54%,–
O=C(NCCc1c[nH]c2ccccc12)c1ccco1,–,"inconclusive: 35.5 µM [falling, single point]"
Cc1ccc2cc(CN(CCc3ccccc3)C(=S)NCCCN(C)C)c(=O)[nH]c2c1,inactive,–
O=C(Cc1cccs1)Nc1ccccc1F,inactive,–
CCN(CC)S(=O)(=O)c1cccc(C(=O)Nc2ccccc2C(=O)N2CCOCC2)c1,inconclusive: 10.5%,–
COc1ccccc1N1CCN(CC(C)N(C(=O)C2CCCCC2)c2ccccn2)CC1 (configuration not stated),inactive,–
CN(C)C(CNc1ccc(C(F)(F)F)cc1[N+](=O)[O-])c1ccccc1 (configuration not stated),inactive,–
COc1ccc(NC2CC(=O)NC2=O)cc1 (configuration not stated),–,"inconclusive: 15.8 µM [falling, partial curve, poor fit]"
O=C(N/N=C\c1c(O)ccc2ccccc12)c1ccc(O)cc1,–,"inconclusive: 22.4 µM [falling, single point]"

Structure (SMILES),"activity change, negative = inhibition",Potency
Cc1cc(C)c(NC(=O)CNC(=O)c2ccc3ncsc3c2)c(C)c1,–,"inconclusive: 10.3 µM [falling, partial curve, poor fit]"
C#CCCOC(=O)Nc1ccccc1,inconclusive: -10.6%,–
CCN(CC)c1ccc(S(=O)(=O)N2CCOCC2)cc1NC(=O)Cn1nc(C)c([N+](=O)[O-])c1C,inactive,–
Cc1ccc(NC(=S)N2CCN(C)CC2)c(C)c1,inconclusive: 3.33%,–
CN(C(=O)Cn1nc(C(=O)O)c2ccccc2c1=O)C1CCCCC1,inactive,–
c1ccc(SCCN2CCN(c3ccccc3)CC2)cc1,inconclusive: 1.22%,–
CCCCC1C2C(=O)N(c3ccc(C)cc3)C(=O)C2ON1c1ccccc1 (configuration not stated),–,"inconclusive: 14.1 µM [falling, partial curve]"
COc1ccc(Br)cc1CNC(=O)Cc1c(C(=O)O)[nH]c2ccc(Cl)cc12,inconclusive: 5.79%,–
CCOc1ccc(C2NC(=S)NC3=C2CCc2ccccc23)cc1 (configuration not stated),–,"inconclusive: 12.6 µM [rising, partial curve, poor fit]"
COc1ccc(NC(=S)NCC2CCCO2)c(OC)c1 (configuration not stated),inconclusive: 11.4%,–
COc1cccc(NC(=O)COc2ccc(C)cc2)c1,–,"inconclusive: 29.1 µM [falling, single point]"
C/C=C(\C)CN1CCN(c2cc(C)ccc2C)CC1,inconclusive: 2.27%,–
CCc1ccc(C(=O)COC(=O)c2cccnc2Cl)cc1,inconclusive: 6.73%,–
COc1cc(NC(=O)CSc2ccc3c(c2)OCCO3)cc(OC)c1OC,inactive,–
COc1ccc(NC(=S)Nc2cccc(Cl)c2)cc1OC,inconclusive: -1.71%,–
CCCCN(C)C(=O)c1ccc2c(c1)N(Cc1cccc(Cl)c1)C(=O)c1ccccc1S2=O (configuration not stated),inactive,–
Cc1[nH]c2ccccc2c1CN1CCC(CO)(Cc2ccccc2)CC1,–,"inconclusive: 10 µM [falling, partial curve, poor fit]"
COc1ccc(CCNC(=O)CS(=O)(=O)Cc2nc(-c3ccccc3Cl)oc2C)cc1OC,inconclusive: -7.22%,–
COc1ccc(C2/C(=C(/O)c3ccccc3)C(=O)C(=O)N2CC(C)O)c(OC)c1 (configuration not stated),inconclusive: 23%,–
COc1ccc(N(CC(=O)N/N=C(\C)c2ccc(OC)c(OC)c2)S(=O)(=O)c2ccccc2)cc1,inconclusive: -2.24%,–
COC(=O)c1cn(-c2ccccc2)c(C)c1C(=O)OC,inconclusive: 12.1%,–
CCC(C)N1CCC2(CC1)N=c1c(c3c4c5c(C)c(O)c3c(O)c1=NC(=O)C(C)=CC=C[C@H](C)[C@H](O)[C@@H](C)[C@@H](O)[C@@H](C)[C@H](OC(C)=O)[C@H](C)[C@@H](OC)C=CO[C@@](C)(O5)C4=O)N2 (some centres not stated),inconclusive: 18.8%,–
CC1=C(C(=O)OCc2ccccc2)C(c2ccc([N+](=O)[O-])cc2)NC(=O)N1C (configuration not stated),inconclusive: -8.2%,–
COc1ccc(N2C(=O)C(CC(=O)Nc3ccc(F)cc3)N(CCc3ccc(OC)c(OC)c3)C2=O)cc1 (configuration not stated),inconclusive: -0.848%,–
CCc1noc(C)c1C(=O)Nc1nc2c(C)cccc2s1,inconclusive: 17%,–
Cn1c2ccccc2c2c(C(=O)NCC3CCCO3)cn(C3CCCC3)c(=O)c21 (configuration not stated),inconclusive: 3.17%,–

Structure (SMILES),"activity change, negative = inhibition",Potency
Cc1ccc(NS(=O)(=O)c2ccc(N3C(=O)CCC3=O)cc2)cc1,inconclusive: 0.358%,–
COc1ccc(N(CC(=O)NCc2ccccc2)C(=O)CCC(=O)Nc2cc(C)ccn2)c(OC)c1,inconclusive: -23.7%,–
CCn1cc(Cl)c(C(=O)N2N=C3/C(=C/c4cccs4)CCCC3C2c2cccs2)n1 (configuration not stated),–,"inconclusive: 16.4 µM [falling, partial curve]"
CCn1c(CSc2nc3ccccc3s2)nnc1SCC(=O)c1ccc(O)c(O)c1,inconclusive: -28.4%,–
CN(c1ccccc1)S(=O)(=O)c1cccc(NC(=O)COc2ccccc2)c1,–,"inconclusive: 18.4 µM [falling, partial curve, poor fit]"
CCOC(=O)C1=C(N)n2c(s/c(=C\c3ccco3)c2=O)=C(C(=O)OCC)C1c1ccco1 (configuration not stated),inconclusive: 5.13%,–
CCCCc1ccc(N=N/C(C(=O)Nc2ccc(NC(C)=O)cc2OC)=C(/C)O)cc1,inconclusive: 1.5%,–
C/C(=C\C(=O)c1ccc(F)cc1)NCc1ccc2c(c1)OCO2,inconclusive: 2.97%,–
COc1ccc(/C=C(\C#N)C(=O)c2c(C)[nH]c3ccccc23)cc1OC,–,"inconclusive: 32.6 µM [falling, partial curve, poor fit]"
COc1cc(/C=C2\C(=O)NN(c3ccccc3)C2=O)cc([N+](=O)[O-])c1O,–,"inconclusive: 25.1 µM [falling, single point]"
CCC(=O)N1CCc2cc(Br)cc(S(=O)(=O)N3CCCCC3CC)c21 (configuration not stated),inactive,–
COc1ccc(NC(=O)CCCN2C(=O)CN(C)C2=O)c(OC)c1,inconclusive: 1.17%,–
CCOC(=O)/C=C/C(=O)Nc1ccc(S(=O)(=O)N2CCc3ccccc32)cc1,inconclusive: -10.5%,–
O=C(/C=C/c1ccc(OC(F)F)cc1)OCC(=O)N1CCN(C(=O)c2ccco2)CC1,inconclusive: 6.01%,–
Cc1cc2oc(C(=O)N(Cc3ccc(N(C)C)cc3)CC3CCCO3)c(C)c2cc1C (configuration not stated),–,"inconclusive: 15.8 µM [rising, partial curve, poor fit]"
CCC1=Nc2cc(C(=O)NCCCOC(C)C)ccc2Sc2ccc(C)cc21,–,"inconclusive: 3.16 µM [falling, full curve, poor fit]"
Cc1noc(C)c1CSCC(=O)Nc1nc2ccccc2s1,inconclusive: 4.5%,–
COc1ccc(-c2cnnn2-c2ccc(NC(=O)c3ccc(S(=O)(=O)N4CCCCC4)cc3)cc2)cc1OC,–,"inconclusive: 8.2 µM [falling, partial curve]"
Cc1cnc(NC(=O)Cc2ccccc2Cl)s1,inconclusive: -7.42%,–
COc1cccc(C(=O)Nc2nnc(-c3ccccc3)s2)c1OC,–,"inconclusive: 5.62 µM [falling, single point]"
CN1C2C=C(N(CCc3c[nH]c4ccccc34)C(=O)c3ccc(Cl)cc3)CC1CC2 (configuration not stated),inconclusive: -23.5%,–
O=C(NCCN1CCOCC1)C1CCC(CNS(=O)(=O)c2ccc(Cl)cc2)CC1 (configuration not stated),inactive,–
CCOC(=O)C/C(C)=N/NC(=O)Nc1ccccc1,inconclusive: 0.174%,–
COc1ccc(C)cc1NC(=O)C(OC(=O)c1cnc(C)cn1)c1ccccc1 (configuration not stated),inconclusive: 6.44%,–
Cc1sc(NC(=O)c2ccco2)c(CN2CCN(c3ccccn3)CC2)c1C,inconclusive: 3.62%,–

# 5 compounds from above, sorted by molecular weight, low to high:
Structure (SMILES),"activity change, negative = inhibition",Potency
CCOC(=O)C/C(C)=N/NC(=O)Nc1ccccc1,inconclusive: 0.174%,–
Cc1cc(C)c(NC(=O)CNC(=O)c2ccc3ncsc3c2)c(C)c1,–,"inconclusive: 10.3 µM [falling, partial curve, poor fit]"
Cc1ccc2cc(CN(CCc3ccccc3)C(=S)NCCCN(C)C)c(=O)[nH]c2c1,inactive,–
O=C(COC(=O)c1cc(S(=O)(=O)NCc2ccccc2)ccc1O)NCc1ccccc1,inactive,–
CCOC(=O)C1=C(N)n2c(s/c(=C\c3ccco3)c2=O)=C(C(=O)OCC)C1c1ccco1 (configuration not stated),inconclusive: 5.13%,–
